Our source for the binding values is paper PMC4776158.

Sequences of proteins named here, by UniProt entry; tags and fusion partners are left off. Residues count along the entry.
UniProt P04133, residues 2-952: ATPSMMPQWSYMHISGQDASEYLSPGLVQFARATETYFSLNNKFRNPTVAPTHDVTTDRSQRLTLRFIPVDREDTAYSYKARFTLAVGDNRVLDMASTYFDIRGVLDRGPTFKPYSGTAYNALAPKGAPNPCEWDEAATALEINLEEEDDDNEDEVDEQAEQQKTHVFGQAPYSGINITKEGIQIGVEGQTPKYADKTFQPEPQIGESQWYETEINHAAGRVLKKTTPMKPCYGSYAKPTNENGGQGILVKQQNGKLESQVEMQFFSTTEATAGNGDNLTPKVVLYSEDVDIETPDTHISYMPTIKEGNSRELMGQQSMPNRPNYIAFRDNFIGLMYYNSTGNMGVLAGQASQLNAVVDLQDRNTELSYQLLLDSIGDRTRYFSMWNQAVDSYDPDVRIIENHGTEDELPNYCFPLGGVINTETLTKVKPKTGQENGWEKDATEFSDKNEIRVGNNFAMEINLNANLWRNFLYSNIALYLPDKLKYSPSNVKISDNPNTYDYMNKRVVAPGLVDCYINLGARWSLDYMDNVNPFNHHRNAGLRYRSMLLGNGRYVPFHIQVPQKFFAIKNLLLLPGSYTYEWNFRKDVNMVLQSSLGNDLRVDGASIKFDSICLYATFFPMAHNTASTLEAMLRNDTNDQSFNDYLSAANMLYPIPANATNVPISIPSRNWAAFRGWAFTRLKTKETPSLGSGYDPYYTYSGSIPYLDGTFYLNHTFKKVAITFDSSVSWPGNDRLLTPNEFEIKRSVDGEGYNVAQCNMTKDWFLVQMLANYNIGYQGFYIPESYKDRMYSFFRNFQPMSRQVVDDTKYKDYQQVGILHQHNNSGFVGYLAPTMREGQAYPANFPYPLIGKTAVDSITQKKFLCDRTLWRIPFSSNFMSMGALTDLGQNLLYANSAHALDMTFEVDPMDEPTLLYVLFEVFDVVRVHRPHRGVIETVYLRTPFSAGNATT
UniProt P24933: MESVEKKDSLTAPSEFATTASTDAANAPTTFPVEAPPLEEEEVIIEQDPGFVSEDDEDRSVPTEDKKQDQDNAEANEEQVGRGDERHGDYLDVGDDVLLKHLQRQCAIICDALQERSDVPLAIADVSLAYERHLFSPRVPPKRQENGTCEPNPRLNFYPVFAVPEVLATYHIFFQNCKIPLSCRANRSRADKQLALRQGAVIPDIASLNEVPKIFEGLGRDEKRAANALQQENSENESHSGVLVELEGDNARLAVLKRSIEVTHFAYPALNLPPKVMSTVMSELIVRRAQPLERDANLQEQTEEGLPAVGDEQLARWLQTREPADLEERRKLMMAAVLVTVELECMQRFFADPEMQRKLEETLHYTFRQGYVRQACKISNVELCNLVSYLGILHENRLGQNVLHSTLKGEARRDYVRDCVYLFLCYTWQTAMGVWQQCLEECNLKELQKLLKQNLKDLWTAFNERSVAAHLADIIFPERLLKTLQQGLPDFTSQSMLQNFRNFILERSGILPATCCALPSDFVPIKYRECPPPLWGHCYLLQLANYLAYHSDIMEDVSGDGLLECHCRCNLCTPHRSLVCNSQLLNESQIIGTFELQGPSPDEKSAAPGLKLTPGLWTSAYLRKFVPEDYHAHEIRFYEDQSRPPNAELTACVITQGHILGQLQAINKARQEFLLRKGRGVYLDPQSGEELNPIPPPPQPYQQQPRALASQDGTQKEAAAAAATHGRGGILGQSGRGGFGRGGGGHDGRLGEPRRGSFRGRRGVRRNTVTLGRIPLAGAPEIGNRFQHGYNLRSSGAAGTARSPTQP

Results are given in words; binding and its absence hold for the method and conditions named. Some entries that bind do so weakly or less than the wild type.

Assay [1] deals with hexon expressed from the genomic plasmid pAd5 (adenovirus serotype 5) (UniProt P04133). Kind of assay: native gel or EMSA; HEK293 transfected with genomic plasmids; total cell extracts, hexon trimers separated by native-PAGE, immunoblot with anti-hexon goat pAbs from serotype 5 and serotype 37. (In general: In EMSA bound probe runs differently from free probe, usually more slowly.)

Assay [2] concerns the target HA-tagged Ad5 L4-100K (adenovirus serotype 5) (UniProt P24933). Kind of assay: native gel or EMSA; hexon plasmids co-transfected with Ad5 L4-100K; Western blotting 'as described above' with anti-hexon goat pAb for the hexon-L4-100K complex (~800kD); L4-100K detected with anti-HA mouse mAb.
The target of assay [3] is hexon from Ad5 (5-Hexon) (adenovirus serotype 5) (UniProt P04133). Kind of assay: native gel or EMSA; hexon plasmids co-transfected with the Ad5 L4-100K plasmid into HEK293; total cell extracts up to 96 h, hexon trimers separated by native-PAGE, immunoblot with anti-hexon goat pAbs.

Consider “hexon expressed from the genomic plasmid pAd5 (from UniProt P04133 2-952)”, for which the binding entry in assay [1] is “binds”.

Take “hexon from Ad5 (5-Hexon) (from UniProt P04133 2-952)”: the binding entry in assay [2] was “no binding”; in assay [3], “binds”.
